The list shows a part of the results. Further columns of the screen follow, without active or inactive calls. The list favours compounds with an active or inconclusive main result. Potencies come from curve fits of mixed quality, noted in brackets.
Experiment: qHTS Assay for Lipid Storage Modulators in Drosophila S3 Cells;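 on cell number change: cells counted by Cell Tracker Red CMTPX staining in the red channel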
Settings: BODIPY lipid droplet fluorescence, 18-24 h; for cell number change: measured here: cell count max response, cells fed with added oleic acid
How it was run: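 Drosophila S3 cells got compounds at several concentrations plus oleic acid (400 uM solution). Laser-scanning cytometry with 488 nm excitation read lipid droplets at 500-530 nm and cells at 575-640 nm. Percent activity was relative to 20 uM Triacsin C.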

[1] = measured here: cell number channel AC50, cells fed with added oleic acid
[2] = measured here: lipid fluorescence (Fed channel) AC50, cells fed with added oleic acid

With CN(CC(=O)NC1CCCc2ccccc21)S(=O)(=O)c1ccc2c(c1)c(=O)n(C)c(=O)n2C (stereo not drawn) the AC50 [1] was 6.51 µM [rising, single point] and the AC50 [2] was 6.51 µM [rising, single point].
With N#Cc1ccccc1NC(=O)CC1CCCCC1 the cell number change was 30.5%.
With COc1cc(C(=O)NC(=S)Nc2ccc3oc(=O)ccc3c2)cc(OC)c1OC the cell number change was -16%.
For COc1ccc(/C=C2\SC(=S)N(C(C)C(=O)NC3C=CS(=O)(=O)C3)C2=O)cc1 (stereo not drawn), the cell number change was 1.91% and the AC50 [2] was 29.1 µM [rising, single point].
With O=C(CCS(=O)(=O)c1ccccc1)N(CCCN1CCOCC1)c1nc2ccccc2s1 the cell number change was -45.4% and the AC50 [1] was 20.6 µM [falling, partial curve, poor fit].
With COc1cccc(NC(=O)CN(C)C(=O)c2ccc(NS(=O)(=O)c3ccc(F)cc3)cc2)c1 the cell number change was -3.61% and the AC50 [2] was 0.103 µM [falling, full curve, poor fit].
With CC(=O)N1CCC(C(=O)OCc2ccc(Cl)cc2)(c2ccccc2)CC1 the cell number change was -11.1% and the AC50 [2] was 3.66 µM [falling, single point].
For COc1ccc(CN2CCN(CC(=O)Nc3ccccc3C(=O)NC3CC3)CC2)cc1F, the cell number change was -8.02% and the AC50 [2] was 6.51 µM [rising, single point].
In the case of COC(=O)CC1Nc2ccccc2SC1=O (stereo not drawn), the cell number change was -101%, the AC50 [1] was 32.6 µM [falling, single point] and the AC50 [2] was 6.51 µM [falling, single point].
In the case of COc1ccc(/C=N/NC(=O)c2nnn(-c3nonc3N)c2-c2cccc(OC)c2)cc1, the cell number change was 11.6% and the AC50 [2] was 8.2 µM [rising, partial curve].
Work on CC(=O)Nc1ccc(S(=O)(=O)Nc2ccc3c(c2)n(C)c(=O)n3C)c(C)c1 yielded a cell number change of 29%.
For Cc1ccc(OC(C)C(=O)Nc2ccc(S(=O)(=O)Nc3nccs3)cc2)cc1 (stereo not drawn), the cell number change was -4.7% and the AC50 [2] was 0.58 µM [falling, single point].
In the case of C[C@H]1CN=C(N(C)C)N1CCC1CCCCC1, the cell number change was 13.1% and the AC50 [2] was 0.731 µM [rising, full curve, poor fit].
In the case of CCC(C)n1c(-c2cccc(S(=O)(=O)N3CCOCC3)c2)n[nH]c1=S (stereo not drawn), the cell number change was -3.31% and the AC50 [2] was 29.1 µM [rising, partial curve].
In the case of Clc1ccccc1-c1nnn(Cc2ccc(-c3nn[nH]n3)cc2)n1, the cell number change was -5.17% and the AC50 [2] was 0.13 µM [falling, full curve, poor fit].
In the case of O=C(Cc1cccs1)N1CCC(c2nc3c(nnn3Cc3ccccc3)c(=O)[nH]2)CC1, the cell number change was -21.9% and the AC50 [2] was 0.82 µM [rising, full curve, poor fit].
In the case of COC(=O)c1ccc(NC(=O)CSc2nc3ccccc3c(=O)[nH]2)cc1, the cell number change was 67.3%, the AC50 [1] was 3.66 µM [rising, full curve] and the AC50 [2] was 2.91 µM [rising, partial curve].
